PMC8379183
No constants are given. Whether binding was seen depends on the method and setting. Binding seen in cells or lysates may run through a third protein. Some binding calls cover weakened binding; strength is not graded here.

By UniProt entry, the sequences of proteins in these tests, tags left out.
UniProt Q9UJQ4: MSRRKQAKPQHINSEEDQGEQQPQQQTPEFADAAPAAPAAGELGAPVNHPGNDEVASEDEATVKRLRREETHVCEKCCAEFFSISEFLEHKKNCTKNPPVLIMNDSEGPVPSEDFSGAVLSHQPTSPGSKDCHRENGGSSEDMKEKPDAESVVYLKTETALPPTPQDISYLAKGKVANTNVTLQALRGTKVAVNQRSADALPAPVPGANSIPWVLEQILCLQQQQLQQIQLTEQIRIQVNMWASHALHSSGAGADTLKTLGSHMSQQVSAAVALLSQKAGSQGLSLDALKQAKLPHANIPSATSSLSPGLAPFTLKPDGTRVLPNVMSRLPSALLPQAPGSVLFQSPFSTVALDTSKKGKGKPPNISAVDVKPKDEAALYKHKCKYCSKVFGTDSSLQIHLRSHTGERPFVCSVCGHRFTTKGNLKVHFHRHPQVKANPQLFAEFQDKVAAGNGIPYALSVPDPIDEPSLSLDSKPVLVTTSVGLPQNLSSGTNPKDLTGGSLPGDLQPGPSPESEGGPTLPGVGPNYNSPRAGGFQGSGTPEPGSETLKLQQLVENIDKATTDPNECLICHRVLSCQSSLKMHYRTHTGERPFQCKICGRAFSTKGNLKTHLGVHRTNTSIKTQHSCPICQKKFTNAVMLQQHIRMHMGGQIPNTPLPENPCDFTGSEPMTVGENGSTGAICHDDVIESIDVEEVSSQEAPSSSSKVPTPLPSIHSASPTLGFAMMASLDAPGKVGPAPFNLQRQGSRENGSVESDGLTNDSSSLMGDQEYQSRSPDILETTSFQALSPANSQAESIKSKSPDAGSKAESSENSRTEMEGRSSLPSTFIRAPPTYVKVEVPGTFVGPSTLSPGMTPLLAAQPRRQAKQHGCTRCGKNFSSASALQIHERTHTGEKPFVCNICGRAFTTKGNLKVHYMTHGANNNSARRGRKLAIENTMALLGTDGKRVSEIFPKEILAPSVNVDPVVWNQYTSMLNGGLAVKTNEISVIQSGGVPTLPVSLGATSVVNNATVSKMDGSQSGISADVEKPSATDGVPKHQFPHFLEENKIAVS
UniProt Q92769: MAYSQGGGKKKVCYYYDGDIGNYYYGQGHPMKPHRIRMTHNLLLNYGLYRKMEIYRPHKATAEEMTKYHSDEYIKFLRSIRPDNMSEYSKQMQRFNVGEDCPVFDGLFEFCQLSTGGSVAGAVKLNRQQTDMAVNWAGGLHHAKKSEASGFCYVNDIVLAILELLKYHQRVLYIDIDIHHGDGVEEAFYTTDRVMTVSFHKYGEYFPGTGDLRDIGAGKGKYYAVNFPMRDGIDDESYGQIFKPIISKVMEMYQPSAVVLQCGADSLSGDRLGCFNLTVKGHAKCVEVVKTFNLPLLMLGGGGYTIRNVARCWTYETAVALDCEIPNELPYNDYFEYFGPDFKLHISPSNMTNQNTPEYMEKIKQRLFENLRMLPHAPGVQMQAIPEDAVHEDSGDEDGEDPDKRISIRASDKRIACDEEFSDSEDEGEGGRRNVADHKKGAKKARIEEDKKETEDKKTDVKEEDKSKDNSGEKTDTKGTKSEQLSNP

Target: SALL4 (human (endogenous in M010817)) (UniProt Q9UJQ4)
Assay: co-IP; SALL4 antibody (abcam ab29112) or IgG coupled to Dynabeads M-270 Epoxy; lysate of M010817 cells in Extraction buffer; 30 min at 4 °C; six washes; eluate analysed by western blot for SALL4 and HDAC2

Substance: histone deacetylase (HDAC) 2 (from UniProt Q92769 1-488) (enzyme)
- binding: binds
